Test results taken from paper PMC6971923.

Molecular target: C-terminal GFP-tagged version of full-length Dg (dystroglycan) (Drosophila)
Assay: co-IP; Dg::GFP captured on GFP-Trap beads from whole lysates of about 1-week-old flies in RIPA buffer (1.3 mg supernatant); western blot with anti-Laminin (LanB2), anti-Hts or anti-Kibra

| binding | Binder |
| --- | --- |
| binds | Hts/Add (Hu li tai shao/Adducin) (protein, UniProt Q02645 1-1156) MTEVEQPPQNGIDPTAGEDDDNSKARPADIEQDMREMERRKRVEAIMGSKLFREELERIVDSARDGGAGASGILQQLSDIVGVPVSRVGSVFKSSNCMVPINDIRGVESMGYAKGEKILRCKLAATFRLLDLYGWTQGLGAQITARLKVDQEYFLVNPYGLLYHEITASALNKVDMQGQIVEQGTTNFGGNKSHFVLHSVVHAARPDIRCAIYIGCSPVVAISSLKTGLLPLTKDACVLGEITTHAYTGLFDEEERNRLVRSLGPNSKVILLTNHGALCCGETIEEAFFAACHIVQACETQLKLLPVGLDNLVLIPEESRKAIYEQSRRPPEDLEKKFAAVAAAEDGAATAEKDAAEAVPKVGSPPKWRVGGAEFEALMRMLDNAGYRTGYIYRHPLIKSDPPKPKNDVELPPAVSSLGYLLEEEELFRQGIWKKGDIRKGGDRSRWLNSPNVYQKVEVLETGTPDPKKITKWVAEGSPTHSTPVRIEDPLQFVPAGTNPREFKRVQQLIKDNRRADKISAGPQSHILEGVTWDEASRLKDATVSQAGDHVVMMGAASKGIIQRGFQHNATVYKAPYAKNPFDNVTDDELNEYKRTVERKKKSVHGEYTDTDFSESEAVLQAGTKKYPQSEPETEHQVIEIQTQQAPVPRQAEVVLSDALVSQLAQKYAFLYSPGQYMYACMKMAPLMHKVYVIHKVEPVSKHNYPPVNDGNMSIHHNESGAGFMAQESSVISSTPVRNALASVSLPEERNHSILGLSSTPYRTISHFGFNCPLITSPTILLHPEHRSIWQRVAEQREKVVSFIDLTTLSLDNRKLLNVVTSTHPTQCQSQSQSFISEKHIQLEVTPPKRKQRVYSATISSGLDDSLDELDSLMSGLAINMPRSREQDSGLYRSYTFLPSNHALPKDTDANNRDQTDRERPEAEQEESFHCAGDSGIGDSTGRRPRLATTSNDSSIQEAEAYTQGKHVKLTLSSSPTPTATQSPATIEILINVSLRNAECVQTVQTHEQEFRAKLERVIDEEIHYISQQLAFKQRQAELHEQQTTSRAPIATPSFTTMHPPAPASSSSMVHRSNSAPELCHTYSYVAVGDLSTKQDQASPQLPAEGEPLNDILSSLEKELERLLNSVVTAHMLHNKAIIHECRARFSQLADGIVSS |
| binds | Kibra (Kbr), Drosophila (protein, UniProt Q9VFG8 1-1288) MPNLQQTASQSQHHLHPHHLRPQQQQQQHHHHHQQQQQQQHTHHQQQQQHHSDFPLPDGWDIAKDFDGKTYYIDHINKKTTWLDPRDCYTKPQTFEDCVGDELPMGWEESYDPNIGPYYINHLAQSTQLEDPRQEWKTVQEQMLSDYLSAAQDQLENKREMFDVKQQRLLWAQEEYNHLKLAASRSSLCSSSSSMSRHDPELLRADLMLARERVHQLKQELTHITNDISYTERGMNTLYSVGEKINARENGCYDIAEVHAIREEMLKVHKSLVSGEKVREELMRSLVQIKNELGRQQISEENSDLASPFDRVCVASQTDLCGSSGENLNGGARFAEMAKTKWQYAEWRKHIKKLQQQLADHVERIEPGQLESDKDRILLIQEKEKLLNDLNSISLKSRSEEEKRVIHQTRHKLEEDLKEAYEANNTCVANRLRFHEEKQLLLDKLQEALKSTKLLEERLKSFSSESTFSISSGSSLGSLSTASSKSALSFTDIYIDPFAVDSPIDVVDLRRRSQRLFQQHQQQRLHPVHPVLQQQQSAEVTLSPRSSLSMETPPASPMKYNAGADQTPQALKEEPTYANALPAPPAYTAPPPVPISGVRARPYDLDSTVLDCMMLEAKLQKLNMGTPLNLAVAPLSPISEKPSLLDLPQEMLSRSSSTSNTRSVSAAVSNESVAGDSGVFEASRAHLPRKELAQVQIGLKYLKQEGVLVVSLERANNLLALWTASADNSQVYLRAALLPNSLTSIRTKALGDFQKPVFNDTFAVPITLDKLLTKSLQVTVVTMTGQKEEIIGTVQISMAEFNPEDSTLKWYNVLSSKFIPSFESLDIPSTSAAAAAAAVAASNAPNPGNNREESSDESTITSSQTSTLTRNQAPCMELQEQMAAELLGLGPLNEPECSDDDDDDEEEELDDKQLVSDVGLMNSSSMLHAYLQNMKQEFADKETNTDRAYLPEKSRGQSQLMDDRPVKRSQTFTPSEAFSKNRYNCRLNRSDSDSAMHCGVAPHTFQRGAAERRSLRFHSKAPKSVTKLHHTHIPRTSLDLELDLQAQHSKLYFLNDQIAKLQNLKEVLQKACENKDPLVAAWAIENEEFQRLVARADPAKCPEERQLQKLLMKTAKEIHKLRKTKVPKGCPDLVSFKEKITFFTRKGLSVPELPSEFTLPEANPIEEEEEEEDENEFYNSAETAIAINTALVASSNRNKNLSEHPHRATSGAVPKIPAPVVTPAATPAATPAATPAATSAATPAATPVVSPAAQPDAKPADAPIPVASNDAEQQRFDYVVDRNYGVEV |

No constants are given. Whether binding was seen depends on the method and setting. In cells and extracts the contact can be indirect. Binding can be weak; no strength is given.
